The list shows a part of the results.
What was measured:
Experiment in all cases: log2 fold change, soluble protein after heating vs DMSO (PISA); higher = thermal stabilisation; K562 cells, 10 uM, 30 min; active = over 0.2 and 3.5 SD of the protein, either way, in both replicates (recomputed)
erlotinib = compound: C#Cc1cccc(Nc2ncnc3cc(OCCOC)c(OCCOC)cc23)c1 [erlotinib]
In short: (§1)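 Soluble protein was defined as the supernatant after 21,000xg for 90 min. It came from K562 cells at 2×10^6 cells/mL given 10 μM compound for 30 min, heated in aliquots for 3 min across 48°C-58°C, pooled, and extracted in PBS with 0.5% NP-40 at 4°C, and was quantified by TMTpro 16plex LC-MS/MS with equalised channel sums. Thermal stability against control samples, from duplicates, is reported as log2 fold change.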

Chains of the proteins cited; added tags and fusions are not shown. Lines headed by an entry give the natural chain unless they say otherwise; changes in a name come on top.
UniProt Q15393: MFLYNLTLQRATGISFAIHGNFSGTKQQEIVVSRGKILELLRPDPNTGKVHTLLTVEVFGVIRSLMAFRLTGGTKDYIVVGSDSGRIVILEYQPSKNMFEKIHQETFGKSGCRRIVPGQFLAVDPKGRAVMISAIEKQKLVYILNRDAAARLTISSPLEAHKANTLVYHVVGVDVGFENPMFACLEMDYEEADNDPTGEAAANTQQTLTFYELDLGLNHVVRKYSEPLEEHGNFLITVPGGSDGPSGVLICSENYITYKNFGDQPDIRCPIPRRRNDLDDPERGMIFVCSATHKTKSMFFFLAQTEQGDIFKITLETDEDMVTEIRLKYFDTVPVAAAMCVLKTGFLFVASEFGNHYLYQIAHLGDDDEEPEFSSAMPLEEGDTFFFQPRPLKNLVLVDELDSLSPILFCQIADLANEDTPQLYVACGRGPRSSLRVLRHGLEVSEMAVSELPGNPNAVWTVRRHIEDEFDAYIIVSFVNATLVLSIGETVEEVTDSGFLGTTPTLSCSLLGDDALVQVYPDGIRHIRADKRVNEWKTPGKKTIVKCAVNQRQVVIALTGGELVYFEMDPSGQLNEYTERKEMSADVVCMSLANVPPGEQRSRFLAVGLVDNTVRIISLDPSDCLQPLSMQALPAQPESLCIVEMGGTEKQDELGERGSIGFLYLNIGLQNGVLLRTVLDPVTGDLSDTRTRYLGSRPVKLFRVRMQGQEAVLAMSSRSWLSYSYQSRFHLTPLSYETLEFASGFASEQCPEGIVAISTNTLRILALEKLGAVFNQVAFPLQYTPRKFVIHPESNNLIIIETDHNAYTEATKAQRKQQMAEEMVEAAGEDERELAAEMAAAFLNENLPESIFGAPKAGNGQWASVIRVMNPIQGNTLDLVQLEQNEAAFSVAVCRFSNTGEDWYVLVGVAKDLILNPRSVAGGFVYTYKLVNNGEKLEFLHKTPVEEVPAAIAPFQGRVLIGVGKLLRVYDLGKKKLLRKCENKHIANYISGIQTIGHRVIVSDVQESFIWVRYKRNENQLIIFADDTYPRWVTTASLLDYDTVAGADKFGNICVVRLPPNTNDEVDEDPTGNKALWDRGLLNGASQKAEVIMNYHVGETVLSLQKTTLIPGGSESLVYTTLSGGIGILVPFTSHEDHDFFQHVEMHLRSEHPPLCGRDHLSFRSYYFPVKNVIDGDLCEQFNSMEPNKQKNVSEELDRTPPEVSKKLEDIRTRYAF
UniProt Q15637: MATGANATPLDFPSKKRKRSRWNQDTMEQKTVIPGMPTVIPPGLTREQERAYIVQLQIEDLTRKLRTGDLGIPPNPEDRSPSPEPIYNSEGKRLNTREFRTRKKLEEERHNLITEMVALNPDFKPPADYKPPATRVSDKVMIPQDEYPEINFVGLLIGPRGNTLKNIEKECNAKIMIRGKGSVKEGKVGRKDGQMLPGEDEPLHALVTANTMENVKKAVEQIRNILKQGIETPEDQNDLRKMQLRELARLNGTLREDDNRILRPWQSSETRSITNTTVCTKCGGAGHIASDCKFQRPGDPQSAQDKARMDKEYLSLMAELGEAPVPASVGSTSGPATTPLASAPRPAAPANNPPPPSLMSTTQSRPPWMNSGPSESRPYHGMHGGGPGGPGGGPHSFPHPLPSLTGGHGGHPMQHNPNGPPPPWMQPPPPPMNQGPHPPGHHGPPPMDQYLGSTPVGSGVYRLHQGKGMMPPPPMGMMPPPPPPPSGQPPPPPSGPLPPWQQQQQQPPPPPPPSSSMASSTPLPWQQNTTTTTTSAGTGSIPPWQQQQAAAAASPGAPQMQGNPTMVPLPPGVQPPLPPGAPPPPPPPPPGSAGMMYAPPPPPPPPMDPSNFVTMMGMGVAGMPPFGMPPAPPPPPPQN
UniProt P08697: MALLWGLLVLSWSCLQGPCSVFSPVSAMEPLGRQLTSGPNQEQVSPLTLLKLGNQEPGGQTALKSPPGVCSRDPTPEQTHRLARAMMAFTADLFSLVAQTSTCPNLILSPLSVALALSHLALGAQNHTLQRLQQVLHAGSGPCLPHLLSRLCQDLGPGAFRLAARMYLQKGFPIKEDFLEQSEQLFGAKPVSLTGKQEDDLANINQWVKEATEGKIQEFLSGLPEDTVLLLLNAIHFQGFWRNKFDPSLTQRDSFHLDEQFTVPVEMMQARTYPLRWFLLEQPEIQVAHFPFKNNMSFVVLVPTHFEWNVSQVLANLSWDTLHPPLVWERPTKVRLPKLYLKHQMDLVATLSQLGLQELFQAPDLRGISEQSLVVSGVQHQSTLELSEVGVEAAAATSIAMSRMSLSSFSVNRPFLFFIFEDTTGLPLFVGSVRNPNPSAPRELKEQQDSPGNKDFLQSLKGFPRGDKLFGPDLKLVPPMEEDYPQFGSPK
UniProt Q96FS4: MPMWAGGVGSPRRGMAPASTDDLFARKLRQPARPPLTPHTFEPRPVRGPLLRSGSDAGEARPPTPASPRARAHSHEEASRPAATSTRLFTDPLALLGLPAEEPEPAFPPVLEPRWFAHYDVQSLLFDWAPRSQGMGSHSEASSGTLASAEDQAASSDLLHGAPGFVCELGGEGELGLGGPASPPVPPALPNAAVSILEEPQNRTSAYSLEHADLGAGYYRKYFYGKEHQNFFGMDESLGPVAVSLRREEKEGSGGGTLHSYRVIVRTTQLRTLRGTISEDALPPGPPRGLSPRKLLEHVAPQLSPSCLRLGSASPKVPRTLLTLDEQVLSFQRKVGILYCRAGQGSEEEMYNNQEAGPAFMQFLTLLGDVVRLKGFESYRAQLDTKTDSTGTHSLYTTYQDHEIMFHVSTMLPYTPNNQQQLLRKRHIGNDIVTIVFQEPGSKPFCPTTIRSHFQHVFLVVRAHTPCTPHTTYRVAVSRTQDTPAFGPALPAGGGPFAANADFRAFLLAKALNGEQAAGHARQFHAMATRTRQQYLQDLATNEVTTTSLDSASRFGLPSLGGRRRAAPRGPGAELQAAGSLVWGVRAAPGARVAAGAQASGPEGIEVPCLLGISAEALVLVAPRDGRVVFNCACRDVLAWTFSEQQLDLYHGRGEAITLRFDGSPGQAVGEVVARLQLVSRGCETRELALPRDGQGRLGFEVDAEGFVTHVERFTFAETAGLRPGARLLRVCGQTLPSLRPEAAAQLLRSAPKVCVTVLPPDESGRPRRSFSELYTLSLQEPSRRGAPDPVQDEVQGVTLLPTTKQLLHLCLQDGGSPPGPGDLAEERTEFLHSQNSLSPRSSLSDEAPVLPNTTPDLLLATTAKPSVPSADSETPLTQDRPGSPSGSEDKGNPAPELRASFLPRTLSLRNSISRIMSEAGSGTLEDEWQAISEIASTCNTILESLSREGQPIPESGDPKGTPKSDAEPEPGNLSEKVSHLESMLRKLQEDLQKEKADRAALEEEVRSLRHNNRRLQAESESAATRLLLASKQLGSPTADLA
UniProt Q9BRV8: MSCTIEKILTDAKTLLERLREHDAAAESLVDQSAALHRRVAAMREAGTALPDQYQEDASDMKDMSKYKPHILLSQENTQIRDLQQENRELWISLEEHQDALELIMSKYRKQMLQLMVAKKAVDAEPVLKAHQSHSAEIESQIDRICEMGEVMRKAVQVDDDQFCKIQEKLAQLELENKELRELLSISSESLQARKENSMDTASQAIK
UniProt Q99720, whole entry, looked up: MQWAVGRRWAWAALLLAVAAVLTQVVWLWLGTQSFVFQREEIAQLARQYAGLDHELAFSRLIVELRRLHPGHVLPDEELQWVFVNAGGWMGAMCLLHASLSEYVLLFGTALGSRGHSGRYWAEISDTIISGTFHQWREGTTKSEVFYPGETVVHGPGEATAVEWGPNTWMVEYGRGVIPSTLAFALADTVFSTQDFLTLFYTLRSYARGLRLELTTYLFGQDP
UniProt Q2M3G4: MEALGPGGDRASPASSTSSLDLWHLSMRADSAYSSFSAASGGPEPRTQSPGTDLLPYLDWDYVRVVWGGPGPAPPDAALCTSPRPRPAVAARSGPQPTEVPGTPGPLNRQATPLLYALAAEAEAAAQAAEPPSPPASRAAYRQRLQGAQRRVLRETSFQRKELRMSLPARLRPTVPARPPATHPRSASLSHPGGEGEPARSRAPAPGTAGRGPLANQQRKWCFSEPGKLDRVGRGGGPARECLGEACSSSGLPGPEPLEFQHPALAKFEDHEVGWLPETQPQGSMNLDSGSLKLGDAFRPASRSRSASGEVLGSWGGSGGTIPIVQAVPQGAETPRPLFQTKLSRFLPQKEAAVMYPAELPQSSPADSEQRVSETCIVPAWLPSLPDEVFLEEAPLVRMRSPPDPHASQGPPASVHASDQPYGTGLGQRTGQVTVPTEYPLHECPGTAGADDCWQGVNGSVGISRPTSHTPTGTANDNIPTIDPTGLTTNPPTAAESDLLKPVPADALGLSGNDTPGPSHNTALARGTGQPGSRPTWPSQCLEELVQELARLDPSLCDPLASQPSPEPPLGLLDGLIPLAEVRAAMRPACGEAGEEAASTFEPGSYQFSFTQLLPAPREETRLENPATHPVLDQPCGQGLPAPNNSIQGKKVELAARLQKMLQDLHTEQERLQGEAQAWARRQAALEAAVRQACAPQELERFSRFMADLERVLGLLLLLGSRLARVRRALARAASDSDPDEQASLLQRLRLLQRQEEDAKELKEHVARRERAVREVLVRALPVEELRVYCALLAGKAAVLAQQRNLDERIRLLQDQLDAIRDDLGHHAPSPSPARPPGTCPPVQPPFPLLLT
UniProt Q96NB2: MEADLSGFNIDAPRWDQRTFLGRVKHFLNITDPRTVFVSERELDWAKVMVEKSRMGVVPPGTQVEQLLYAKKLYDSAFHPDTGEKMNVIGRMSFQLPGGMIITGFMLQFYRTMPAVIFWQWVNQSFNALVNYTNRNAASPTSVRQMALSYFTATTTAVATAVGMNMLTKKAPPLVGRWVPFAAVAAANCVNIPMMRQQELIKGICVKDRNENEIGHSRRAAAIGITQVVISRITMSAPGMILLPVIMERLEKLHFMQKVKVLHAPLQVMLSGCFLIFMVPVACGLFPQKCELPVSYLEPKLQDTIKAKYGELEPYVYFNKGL
UniProt Q96ST3: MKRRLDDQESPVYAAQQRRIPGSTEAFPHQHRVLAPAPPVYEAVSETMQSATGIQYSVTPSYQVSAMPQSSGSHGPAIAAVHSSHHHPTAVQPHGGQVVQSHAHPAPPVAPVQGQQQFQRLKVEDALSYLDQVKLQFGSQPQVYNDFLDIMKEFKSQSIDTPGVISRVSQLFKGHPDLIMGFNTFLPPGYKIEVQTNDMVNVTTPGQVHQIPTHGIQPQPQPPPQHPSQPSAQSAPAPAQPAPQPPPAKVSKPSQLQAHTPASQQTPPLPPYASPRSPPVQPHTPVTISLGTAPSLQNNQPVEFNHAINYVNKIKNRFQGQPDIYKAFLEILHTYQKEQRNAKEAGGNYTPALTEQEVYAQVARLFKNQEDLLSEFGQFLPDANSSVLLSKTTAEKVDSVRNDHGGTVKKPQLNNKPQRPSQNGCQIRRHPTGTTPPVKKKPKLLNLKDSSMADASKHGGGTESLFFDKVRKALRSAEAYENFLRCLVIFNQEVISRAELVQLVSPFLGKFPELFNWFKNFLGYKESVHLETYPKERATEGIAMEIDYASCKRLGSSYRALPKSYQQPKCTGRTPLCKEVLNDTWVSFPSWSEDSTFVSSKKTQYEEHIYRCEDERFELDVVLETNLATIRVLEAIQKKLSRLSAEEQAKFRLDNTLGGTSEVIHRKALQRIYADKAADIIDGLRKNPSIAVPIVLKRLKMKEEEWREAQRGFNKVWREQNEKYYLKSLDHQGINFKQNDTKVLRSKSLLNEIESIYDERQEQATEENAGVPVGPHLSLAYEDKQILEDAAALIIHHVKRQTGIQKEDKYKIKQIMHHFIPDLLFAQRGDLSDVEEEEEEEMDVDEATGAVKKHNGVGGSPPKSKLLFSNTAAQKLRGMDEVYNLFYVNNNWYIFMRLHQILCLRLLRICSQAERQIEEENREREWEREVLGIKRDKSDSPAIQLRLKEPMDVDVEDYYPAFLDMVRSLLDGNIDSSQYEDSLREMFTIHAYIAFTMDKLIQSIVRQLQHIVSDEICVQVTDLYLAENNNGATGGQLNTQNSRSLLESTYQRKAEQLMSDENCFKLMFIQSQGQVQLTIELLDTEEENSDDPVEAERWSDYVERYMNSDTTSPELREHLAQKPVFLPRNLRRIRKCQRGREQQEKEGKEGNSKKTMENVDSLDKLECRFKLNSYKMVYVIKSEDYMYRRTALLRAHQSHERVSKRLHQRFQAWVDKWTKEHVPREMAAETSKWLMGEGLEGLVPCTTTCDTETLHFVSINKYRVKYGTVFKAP
UniProt P63208, whole entry, looked up: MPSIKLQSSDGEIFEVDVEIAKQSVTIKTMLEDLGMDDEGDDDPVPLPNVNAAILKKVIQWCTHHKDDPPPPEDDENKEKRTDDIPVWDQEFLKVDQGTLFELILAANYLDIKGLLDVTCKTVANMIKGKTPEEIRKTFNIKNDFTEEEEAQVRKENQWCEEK
UniProt O95562: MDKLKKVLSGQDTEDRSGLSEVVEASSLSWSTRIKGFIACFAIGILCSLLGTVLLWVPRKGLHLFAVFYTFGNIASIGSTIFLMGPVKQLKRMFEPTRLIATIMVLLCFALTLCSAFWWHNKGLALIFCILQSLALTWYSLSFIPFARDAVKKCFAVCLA

[1] = compound: C/C(=N\NC(=O)C1=CC(=CC=C1)S(=O)(=O)N2CCOCC2)/C3=C(C=CC(=C3)Cl)O
In short: as §1

[2] = compound: C1=CC(=C(C=C1Cl)C2=NC3=NC=CN=C3C(=N2)NC4=CC=NC=C4)F
In short: as §1

[3] = compound: C1=CC(=CC=C1C2=NC3=C(N2)C=C(C=C3)C(=O)N)OC4=CC=C(C=C4)Cl
In short: as §1

[4] = compound: C1=CC2=C(C=CC(=C2)/C=C\3/C(=O)NC(=NCC4=CC=CS4)S3)N=C1
In short: as §1

[5] = compound: C1=CC2=NC=CN=C2C=C1/C=C/3\C(=O)NC(=O)S3
In short: as §1

[6] = compound: C1=CC=C(C=C1)C2=NC(=C(N2)C3=CC=NC=C3)C4=CC(=C(C=C4)Cl)O
In short: as §1

[7] = compound: C1=CC=C2C(=C1)C3=NNC4=CC=CC(=C43)C2=O
In short: as §1

[8] = compound: C1CCN(C1)C(=O)NC2=CC=CC(=C2)NC3=NC=C(C(=N3)NCCC4=CN=CN4)Br
In short: as §1

[9] = compound: C1CN(CCC1(CC2=CC=C(C=C2)Cl)N)C3=NC=NC4=C3C=CN4
In short: as §1

Measured: log2 fold change

SEPSECS (UniProt Q9HD40)
inactive: erlotinib 0.015 | [1] 0.024 | [2] 0.066 | [3] 0.033 | [4] -0.035 | [5] 0.011 | [6] -0.017 | [7] -0.009 | [8] -0.022 | [9] 0.031

SEPHS2 (UniProt Q99611)
inactive: erlotinib 0.011 | [1] 0.024 | [2] 0.07 | [3] -0.009 | [4] -0.031 | [5] 0.025 | [6] 0.144 | [7] 0.056 | [8] -0.003 | [9] 0.029

SERPINB1 (UniProt P30740)
inactive: erlotinib 0.015 | [1] 0.043 | [2] 0.038 | [3] -0.005 | [4] 0.007 | [5] -0.004 | [6] 0.013 | [7] 0.016 | [8] -0.005 | [9] 0.018

SLAIN2 (UniProt Q9P270)
inactive: erlotinib 0.037 | [1] -0.006 | [2] -0.012 | [3] -0.02 | [4] 0.046 | [5] 0.095 | [6] 0.016 | [7] -0.08 | [8] -0.02 | [9] -0.047

SF3B3 (UniProt Q15393)
inactive: erlotinib -0.039 | [1] 0.026 | [2] 0.009 | [3] -0.005 | [4] 0.004 | [5] 0.003 | [6] -0.009 | [7] 0.054 | [8] -0.023 | [9] 0.003

SFN (UniProt P31947)
inactive: erlotinib 0.004 | [1] 0.034 | [2] 0.047 | [3] -0.044 | [4] 0.017 | [5] -0.032 | [6] -0.033 | [7] 0.006 | [8] 0.024 | [9] 0.01

SF1 isoform 5 (UniProt Q15637)
inactive: erlotinib 0.043 | [1] -0.006 | [2] 0.02 | [3] -0.002 | [4] -0.099 | [5] -0.012 | [6] 0.014 | [7] 0.026 | [8] -0.03 | [9] 0.062

SELENBP1 isoform 4 (UniProt Q13228)
inactive: erlotinib -0.01 | [1] -0.033 | [2] 0.026 | [3] 0.035 | [4] -0.058 | [5] -0.014 | [6] 0.046 | [7] -0.019 | [8] 0.017 | [9] 0.057

SERPINB6, A0A087X1N8
inactive: erlotinib -0.007 | [1] 0.013 | [2] 0.042 | [3] 0.004 | [4] -0.001 | [5] 0.009 | [6] 0.067 | [7] 0.009 | [8] 0.035 | [9] 0.094

SEPTIN2 isoform 2 (UniProt Q15019)
inactive: erlotinib 0.01 | [1] -0.017 | [2] 0.008 | [3] -0.005 | [4] 0.002 | [5] 0.022 | [6] -0.019 | [7] 0.003 | [8] -0.002 | [9] 0.043

SERPINF2 (UniProt P08697)
inactive: erlotinib -0.303 | [1] -0.135 | [2] 0.109 | [3] 0.185 | [4] 0.17 | [5] -0.004 | [6] -0.205 | [7] -0.05 | [8] 0.153 | [9] 0.337

SIPA1 (UniProt Q96FS4)
inactive: erlotinib 0.053 | [1] -0.005 | [2] 0 | [3] -0.017 | [4] -0.052 | [5] -0.005 | [6] 0 | [7] 0.005 | [8] -0.101 | [9] -0.055

SIAE (UniProt Q9HAT2)
inactive: erlotinib 0.134 | [1] -0.051 | [2] 0.052 | [3] -0.125 | [4] 0.046 | [5] 0.078 | [6] -0.247 | [7] 0.004 | [8] 0.103 | [9] 0.003

SIKE1 (UniProt Q9BRV8)
inactive: erlotinib 0.052 | [1] -0.056 | [2] 0.069 | [3] -0.015 | [4] -0.001 | [5] -0.021 | [6] 0.02 | [7] -0.016 | [8] -0.041 | [9] -0.069

SFPQ (UniProt P23246)
inactive: erlotinib 0 | [1] 0 | [2] -0.227 | [3] 0.028 | [4] -0.037 | [5] 0.098 | [6] -0.079 | [7] -0.037 | [8] -0.055 | [9] -0.064

SEL1L3 (UniProt Q68CR1)
inactive: erlotinib 0.059 | [1] -0.006 | [2] -0.064 | [3] -0.064 | [4] -0.013 | [5] 0.091 | [6] -0.07 | [7] -0.008 | [8] 0.03 | [9] 0.006

SIGMAR1 (UniProt Q99720)
inactive: erlotinib -0.009 | [1] -0.069 | [2] 0.098 | [3] 0.013 | [4] -0.01 | [5] 0.063 | [6] -0.032 | [7] -0.068 | [8] -0.002 | [9] 0.089

SEPTIN5 (UniProt G3XAH0)
inactive: erlotinib 0.009 | [1] -0.251 | [2] 0.146 | [3] 0.076 | [4] -0.022 | [5] -0.035 | [6] 0.014 | [7] -0.24 | [8] 0.009 | [9] 0.049

SGPL1 (UniProt O95470)
inactive: erlotinib -0.038 | [1] -0.019 | [2] -0.088 | [3] -0.047 | [4] 0.05 | [5] -0.029 | [6] 0.01 | [7] -0.001 | [8] -0.035 | [9] -0.145

SIRT2 (UniProt Q8IXJ6)
inactive: erlotinib 0.03 | [1] 0.055 | [2] 0.001 | [3] 0.054 | [4] -0.113 | [5] 0.017 | [6] 0.051 | [7] 0.029 | [8] 0.025 | [9] 0.016

SHROOM1 (UniProt Q2M3G4)
inactive: erlotinib 0.044 | [1] 0.255 | [2] 0.115 | [3] -0.023 | [4] -0.255 | [5] 0.2 | [6] -0.139 | [7] 0.105

SFXN2 (UniProt Q96NB2)
inactive: erlotinib 0.09 | [1] -0.065 | [2] 0.099 | [3] -0.018 | [4] 0.084 | [5] 0.009 | [6] -0.018 | [7] -0.064 | [8] -0.03 | [9] 0.016

SERPINB9 (UniProt P50453)
inactive: erlotinib -0.025 | [1] 0.027 | [2] 0.072 | [3] 0.026 | [4] -0.02 | [5] -0.021 | [6] 0.037 | [7] 0.005 | [8] -0.01 | [9] 0.052

Fetched one by one from the list above, 2 records:
SERPINB6, A0A087X1N8
inactive: erlotinib -0.007 | [1] 0.013 | [2] 0.042 | [3] 0.004 | [4] -0.001 | [5] 0.009 | [6] 0.067 | [7] 0.009 | [8] 0.035 | [9] 0.094

SIKE1 (UniProt Q9BRV8)
inactive: erlotinib 0.052 | [1] -0.056 | [2] 0.069 | [3] -0.015 | [4] -0.001 | [5] -0.021 | [6] 0.02 | [7] -0.016 | [8] -0.041 | [9] -0.069

Later entries

SIN3A (UniProt Q96ST3)
inactive: erlotinib -0.011 | [1] 0.008 | [2] -0.077 | [3] 0.054 | [4] -0.055 | [5] 0.048 | [6] 0.005 | [7] 0.015 | [8] 0.095 | [9] -0.001

SKP1 (UniProt P63208)
inactive: erlotinib -0.003 | [1] -0.036 | [2] 0.05 | [3] -0.011 | [4] -0.048 | [5] 0.045 | [6] 0.047 | [7] 0.009 | [8] -0.006 | [9] 0.03

SHTN1 isoform 3 (UniProt A0MZ66)
inactive: erlotinib 0.01 | [1] 0.021 | [2] -0.041 | [3] -0.074 | [4] 0.033 | [5] 0.053 | [6] 0.011 | [7] 0.001 | [8] -0.036 | [9] -0.043

SH3GLB2 (UniProt Q9NR46)
inactive: erlotinib 0.048 | [1] 0.081 | [2] -0.044 | [3] -0.021 | [4] 0 | [5] 0.01 | [6] -0.033 | [7] -0.021 | [8] -0.022 | [9] -0.013

SFT2D2 (UniProt O95562)
inactive: erlotinib 0.153 | [1] -0.082 | [2] 0.029 | [3] -0.015 | [4] 0.095 | [5] 0.057 | [6] -0.146 | [7] -0.058 | [8] 0.04 | [9] 0.043

SF3A3 (UniProt Q12874)
inactive: erlotinib -0.014 | [1] 0.077 | [2] -0.072 | [3] -0.056 | [4] 0.073 | [5] 0.028 | [6] 0.002 | [7] -0.027 | [8] -0.057 | [9] 0.017

SEC61A1 (UniProt P61619)
inactive: erlotinib -0.043 | [1] -0.014 | [2] -0.049 | [3] -0.006 | [4] 0.037 | [5] 0.023 | [6] 0.033 | [7] -0.033 | [8] 0.024 | [9] 0.069
